# Experimental data published in paper PMC8543921.
# Amino acid sequences for entries named in this document (tags omitted). A change or cut given only in a name is not applied to a line headed by its entry.
# UniProt Q9SZD4: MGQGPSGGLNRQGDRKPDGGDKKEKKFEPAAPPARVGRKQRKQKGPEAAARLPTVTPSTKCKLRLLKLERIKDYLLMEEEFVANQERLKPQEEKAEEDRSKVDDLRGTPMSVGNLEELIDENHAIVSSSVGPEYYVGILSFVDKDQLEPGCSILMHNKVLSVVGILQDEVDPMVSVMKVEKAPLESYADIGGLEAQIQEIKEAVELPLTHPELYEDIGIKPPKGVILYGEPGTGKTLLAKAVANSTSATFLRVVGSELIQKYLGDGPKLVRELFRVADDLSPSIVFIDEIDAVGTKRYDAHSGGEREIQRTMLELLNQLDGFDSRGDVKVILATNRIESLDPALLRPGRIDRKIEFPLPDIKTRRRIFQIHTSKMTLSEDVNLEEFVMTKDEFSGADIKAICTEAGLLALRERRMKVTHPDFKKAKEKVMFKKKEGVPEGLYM
# UniProt Q9FFV7: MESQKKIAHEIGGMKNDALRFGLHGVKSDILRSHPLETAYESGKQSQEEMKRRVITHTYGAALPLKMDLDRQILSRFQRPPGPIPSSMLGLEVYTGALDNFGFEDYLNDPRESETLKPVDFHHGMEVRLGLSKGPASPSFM
# UniProt F4JC97: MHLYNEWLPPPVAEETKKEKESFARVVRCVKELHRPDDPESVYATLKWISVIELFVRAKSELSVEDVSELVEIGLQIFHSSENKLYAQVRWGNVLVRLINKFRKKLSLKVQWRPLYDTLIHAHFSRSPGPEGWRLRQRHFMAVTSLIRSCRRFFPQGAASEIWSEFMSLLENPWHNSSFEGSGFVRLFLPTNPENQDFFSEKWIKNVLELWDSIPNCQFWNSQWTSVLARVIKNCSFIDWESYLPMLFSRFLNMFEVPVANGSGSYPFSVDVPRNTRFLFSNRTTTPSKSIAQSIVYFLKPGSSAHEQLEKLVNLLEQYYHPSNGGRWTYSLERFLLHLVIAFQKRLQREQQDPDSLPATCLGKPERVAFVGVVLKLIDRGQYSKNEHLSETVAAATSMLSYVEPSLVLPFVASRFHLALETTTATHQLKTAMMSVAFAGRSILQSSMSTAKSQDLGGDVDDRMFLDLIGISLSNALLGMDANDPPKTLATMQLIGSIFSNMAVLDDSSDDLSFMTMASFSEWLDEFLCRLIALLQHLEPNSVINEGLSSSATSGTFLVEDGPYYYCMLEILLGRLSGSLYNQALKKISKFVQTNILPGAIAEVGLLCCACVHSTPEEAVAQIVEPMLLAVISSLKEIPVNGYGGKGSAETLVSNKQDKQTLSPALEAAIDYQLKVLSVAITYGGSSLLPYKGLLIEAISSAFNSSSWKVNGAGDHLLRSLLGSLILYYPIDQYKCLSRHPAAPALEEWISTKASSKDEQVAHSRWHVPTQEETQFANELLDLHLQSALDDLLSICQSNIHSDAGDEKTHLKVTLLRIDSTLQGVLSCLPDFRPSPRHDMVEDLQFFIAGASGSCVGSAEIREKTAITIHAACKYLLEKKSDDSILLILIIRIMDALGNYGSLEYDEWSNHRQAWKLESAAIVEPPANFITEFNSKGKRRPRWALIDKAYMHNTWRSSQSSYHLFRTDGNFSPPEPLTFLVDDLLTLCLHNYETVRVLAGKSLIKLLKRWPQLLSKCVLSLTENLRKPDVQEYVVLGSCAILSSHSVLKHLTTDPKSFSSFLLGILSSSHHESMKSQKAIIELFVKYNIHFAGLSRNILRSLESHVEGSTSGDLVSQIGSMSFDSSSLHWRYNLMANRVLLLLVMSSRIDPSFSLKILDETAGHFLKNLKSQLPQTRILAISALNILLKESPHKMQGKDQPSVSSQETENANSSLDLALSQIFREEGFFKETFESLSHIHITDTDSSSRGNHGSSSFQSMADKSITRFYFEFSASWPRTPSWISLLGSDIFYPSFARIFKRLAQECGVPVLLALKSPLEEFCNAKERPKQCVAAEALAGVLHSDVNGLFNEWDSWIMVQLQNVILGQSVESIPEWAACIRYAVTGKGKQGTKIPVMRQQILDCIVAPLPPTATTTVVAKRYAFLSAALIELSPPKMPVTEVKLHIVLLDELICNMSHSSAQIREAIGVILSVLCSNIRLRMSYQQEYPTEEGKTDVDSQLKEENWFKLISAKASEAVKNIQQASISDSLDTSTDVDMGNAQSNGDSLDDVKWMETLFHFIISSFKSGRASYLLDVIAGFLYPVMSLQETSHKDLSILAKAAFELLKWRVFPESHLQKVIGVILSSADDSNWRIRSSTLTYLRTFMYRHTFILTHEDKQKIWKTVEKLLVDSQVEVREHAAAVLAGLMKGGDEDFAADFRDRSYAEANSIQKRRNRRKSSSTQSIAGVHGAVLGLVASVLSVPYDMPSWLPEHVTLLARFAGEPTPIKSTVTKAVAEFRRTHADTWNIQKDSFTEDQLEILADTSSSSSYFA
# UniProt F4HRT6: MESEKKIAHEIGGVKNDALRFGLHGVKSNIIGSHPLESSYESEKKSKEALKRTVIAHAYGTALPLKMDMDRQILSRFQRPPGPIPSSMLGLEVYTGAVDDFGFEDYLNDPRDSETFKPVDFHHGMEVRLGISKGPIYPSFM
# UniProt Q7DLS1: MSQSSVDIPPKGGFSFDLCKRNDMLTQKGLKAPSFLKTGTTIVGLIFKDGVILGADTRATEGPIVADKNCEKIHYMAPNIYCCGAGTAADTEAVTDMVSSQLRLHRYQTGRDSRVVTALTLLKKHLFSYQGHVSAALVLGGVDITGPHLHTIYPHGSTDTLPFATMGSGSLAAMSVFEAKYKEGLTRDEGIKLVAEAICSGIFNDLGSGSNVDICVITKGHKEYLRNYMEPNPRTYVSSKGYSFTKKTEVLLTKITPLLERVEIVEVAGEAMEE
# UniProt O23710: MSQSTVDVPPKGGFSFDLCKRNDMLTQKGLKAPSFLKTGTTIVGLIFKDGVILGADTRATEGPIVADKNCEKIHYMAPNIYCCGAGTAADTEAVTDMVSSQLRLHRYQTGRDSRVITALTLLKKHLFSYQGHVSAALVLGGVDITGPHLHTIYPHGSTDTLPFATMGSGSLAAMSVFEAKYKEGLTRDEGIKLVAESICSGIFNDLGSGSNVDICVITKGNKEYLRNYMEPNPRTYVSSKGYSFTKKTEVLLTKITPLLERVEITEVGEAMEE
# Results are given in words; binding and its absence hold for the method and conditions named. In cells and extracts the contact can be indirect. Here binding means that the protein was enriched with, or labelled near, the bait; the list need not be complete. For some assays here: No binding means not detected with the bait. Where a sequence is shown, tags or fusion partners need not be part of it.
# T1: PAG1-FLAG (Arabidopsis thaliana) (UniProt O23715)
# T1 sequence: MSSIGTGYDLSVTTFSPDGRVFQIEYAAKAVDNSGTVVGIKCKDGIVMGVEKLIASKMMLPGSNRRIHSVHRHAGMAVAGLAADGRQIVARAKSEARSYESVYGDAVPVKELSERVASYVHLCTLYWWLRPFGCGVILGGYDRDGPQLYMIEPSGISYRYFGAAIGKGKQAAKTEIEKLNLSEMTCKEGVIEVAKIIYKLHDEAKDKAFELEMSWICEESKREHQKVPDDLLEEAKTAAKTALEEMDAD
# B1: RPN1b (protein, UniProt Q6XJG8 1-891)
# chain: MAPVPDPNSVGGGAKRDEATTKIPSKDSKKKDDKKEEDLSEEDLQLKQNLELYVERVQDPNPELQKIALESMRKEIRDSTSSMTSVPKPLKFLRPHYGVLKEFHAKMAESDLKKMLADILSVLALTMSAEGERESLNYRLNGSESDIGSWGHEYVRNLAGEIAKEYTIRQGEESSIEDLMDLVQQIVSFHMKHNAETEAVDLLMDVEDLDLLLEHVDNTNFRRTCNYLTSAAKYLPGPDDMLVLDIAYMIYIKFAEYPNALQIALFLDNMQYVKQVFTSCTDLVKKKQFCYMIARHGMTFELDQEMVANDEDKEALQDIVNNSKLSEGYLTLARDIEVMEAKTPEDIYKAHLLDGRASSGPSVDSARQNLSATFVNAFVNAGFGQDKLMTVPSDSTSGSAGNWLFKNKEHGKTSAVASLGMIQLWDVETGLGHLDKYFHSNDNPVVAGALLGVGIVNCGIKNDCDPAFALLSGYIDNEDSSVRIGAIMGLGIAYAGSQNDQIKIRLSPILNDANAPLDVIAFAALSLGMIYVGSCNEEVAQSIIFALMDRSEAELGEALTRFLPLGLGLLYLGKQESVEATAEVSKTFNEKIRKYCDMTLLSCAYAGTGNVLKVQDLLAQCGEHLVKGDIHQGPAVIGLAMVAMSEELGLDMEIRSLERVLQYGEQNIRRAVPLALGLLCISNPKVTVMDTLSRLSHDTDSEVAMAAIISLGLIGAGTNNARIAGMLRNLSSYYYKDASLLFCVRIAQGFVHMGKGLLTLNPFHSERLLLSPTALAGIVTLLHACLDMKSIILGKYHYVLYFLVLAMQPRMMLTVDQSLKPISVPVRVGQAVDVVGQAGRPKTITGFQTHSTPVLLAAGERAELATEKYIPLSPILEGFVILKENPDYREE
# B2: RPN1a (protein, UniProt Q9SIV2 1-891)
# chain: MAPTQDPNSVGGGAKKDEATLKVPSKDPKKKDEKKDEDLSEEDLELKQNLELYVERVQDPNPELQKAALESMRQEIRASTSSMTSVPKPLKFLRPHYGTLKAFHETMADSDLKKYLSDILSVLALTMSADGERESLRFRLIGTEGDIGSWGHEYVRNLAGEIAQEYTKRQSEEASIDDLMELVQQIVAFHMKHNAETEAVDLLMDVEDLDLLLEHVDKTNFKRTCNYLTSAARYLPGPDDMLVLDISYMIYMKFEEYPNALQIALFLDNTQYVKQVFTSCTDLLKKKQFCYMIARHGITFELDDEMVADDDDREALQDIVNNTKLSEGYLTLARDIEVMEAKTPEDIYKAHLLDGRASSGASVDSARQNLAATFVNAFVNAGFGQDKLMTVPSDSTTGSSGNWLFKNKEHGKTSAAASLGMIQLWDVDSGLSQLDKYFHSNDNPIIAGALLGVGIVNCGIKNDCDPALALLGDYIDKEDSSVRIGAIMGLGISYAGSQNDQIRNKLSPILNDAKAPLDVIAFASLSLGMIYVGSCNEEVAQSIIFALMDRSEAELGDALTRFLPLGLGLLYLGKQESVEATAEVSKTFNEKIRKYCDMTLLSCAYAGTGNVLKVQDLLAQCGEHLEKGDIHQGPAVLGLAMVAMSEELGVDMEIRSLERMLQYGEQNIRRAVPLALGLLCISNPKVTVMDTLSRLSHDTDSEVAMSAIISLGLIGAGTNNARIAGMLRNLSSYYYKDMSLLFCVRIAQGLVHMGKGLLTLSPFHSERFLLSPTALAGIVTLLHACLDMKPIILGKYHYVLYFLVLAMQPRMMLTVDENLKPLSVPVRVGQAVDVVGQAGRPKTITGFQTHSTPVLLAAGERAELATDKYIPLSPILEGFIILKENPDYREE
# Biological target: T1, PAG1-FLAG (Arabidopsis thaliana)
# Assay: affinity purification with mass spectrometry; as a1 with 20 mM ATP, seedlings stressed with 150 mM NaCl
row,binding,Molecule
1,binds,RPT2a (from UniProt Q9SZD4 1-443)

# Biological target: T1, PAG1-FLAG (Arabidopsis thaliana)
# Assay: condition: only seedlings stressed with 150 mM NaCl; affinity purification with mass spectrometry; as a1 with 20 mM ATP, seedlings stressed with 150 mM NaCl
row,binding,Molecule
1,no binding,SEM1/DSS1

# Biological target: T1, PAG1-FLAG (Arabidopsis thaliana)
# Assay: affinity purification with mass spectrometry; PAG1-FLAG proteasomes on anti-FLAG M2 resin, LC-MS/MS; isolated in the presence and/or absence of 20 mM ATP (not told for each protein); less found from NaCl-treated seedlings
row,binding,Molecule
1,binds,PBAC4
2,binds,UMP1b (from UniProt Q9FFV7)
3,binds,PBAC1
4,binds,PA200 (from UniProt F4JC97 1-1811)
5,binds,PBAC3
6,binds,PTRE1
7,binds,PAP1
8,binds,PBAC2
9,binds,UMP1a (from UniProt F4HRT6)

# Biological target: T1, PAG1-FLAG (Arabidopsis thaliana)
# Assay: affinity purification with mass spectrometry; PAG1-FLAG proteasomes from seedling lysate on anti-FLAG M2 resin, 1 h at 4 °C, buffer A (50 mM HEPES-KOH pH 7.5, 50 mM NaCl, 10% glycerol, 10 mM MgCl2, 5 mM DTT) with 20 mM ATP, eluted with 3X FLAG peptide, LC-MS/MS; control, MV- and NaCl-treated seedlings
row,binding,Molecule
1,binds,RPT5
2,binds,PBB2 (from UniProt Q7DLS1)
3,binds,RPN2
4,binds,PBB1 (from UniProt O23710)
5,binds,SEM1/DSS1
6,binds,PAF
7,binds,RPN5
8,binds,B1
9,binds,B2
